# This is one part of the list. Repeats are few or missing, and single values can be far off.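 Pooled together, 41 HAP1 clones carry intronic fluorescent tags on 61 cancer-associated proteins, and each clone is recognized by its imaging pattern. Measurements are benchmarked against DMSO-treated control wells. dBET6, a BRD4 degrader, served as the positive control.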
# By UniProt entry, the sequences of proteins in these tests, tags left out.
# UniProt O14980, whole entry: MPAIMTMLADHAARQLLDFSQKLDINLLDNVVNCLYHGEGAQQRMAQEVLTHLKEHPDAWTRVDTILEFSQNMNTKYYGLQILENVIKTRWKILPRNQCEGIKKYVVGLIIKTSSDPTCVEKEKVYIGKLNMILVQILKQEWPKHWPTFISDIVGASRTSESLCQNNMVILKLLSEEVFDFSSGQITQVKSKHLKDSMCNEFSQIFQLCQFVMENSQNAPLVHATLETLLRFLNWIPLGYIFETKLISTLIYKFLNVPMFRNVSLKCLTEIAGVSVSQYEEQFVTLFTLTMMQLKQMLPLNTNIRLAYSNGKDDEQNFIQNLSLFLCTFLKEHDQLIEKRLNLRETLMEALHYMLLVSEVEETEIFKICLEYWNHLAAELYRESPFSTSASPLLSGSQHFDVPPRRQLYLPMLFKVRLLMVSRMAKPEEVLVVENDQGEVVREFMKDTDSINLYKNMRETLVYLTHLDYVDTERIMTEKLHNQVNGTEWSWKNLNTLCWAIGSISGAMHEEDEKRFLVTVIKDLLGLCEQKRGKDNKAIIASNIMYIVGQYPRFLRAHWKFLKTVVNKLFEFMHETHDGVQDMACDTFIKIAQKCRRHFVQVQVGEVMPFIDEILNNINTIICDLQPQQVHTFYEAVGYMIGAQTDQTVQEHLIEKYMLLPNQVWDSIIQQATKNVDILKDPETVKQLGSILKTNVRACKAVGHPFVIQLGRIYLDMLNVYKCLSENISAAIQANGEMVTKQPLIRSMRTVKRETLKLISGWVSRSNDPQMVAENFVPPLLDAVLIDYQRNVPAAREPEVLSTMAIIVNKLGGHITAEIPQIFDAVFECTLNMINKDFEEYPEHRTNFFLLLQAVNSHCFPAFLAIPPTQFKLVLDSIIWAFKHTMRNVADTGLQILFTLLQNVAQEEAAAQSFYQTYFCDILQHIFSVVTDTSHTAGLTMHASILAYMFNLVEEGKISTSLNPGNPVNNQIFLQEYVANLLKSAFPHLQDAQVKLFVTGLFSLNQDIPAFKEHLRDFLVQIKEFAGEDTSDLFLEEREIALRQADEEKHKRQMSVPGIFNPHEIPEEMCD
# Target: XPO1 (intron 15 mScarlet tag, HAP1) (UniProt O14980)
# Experiment: XPO1 fluorescence intensity change vs DMSO (log2 fold change); higher = more XPO1 protein
# Conditions: 6 h
row,Structure (SMILES),XPO1 fluorescence intensity change (log2)
1,N.N.[Cl][Pt][Cl] [Cisplatin] (20 µM),0.0535
2,CCC1(c2ccc(N)cc2)CCC(=O)NC1=O (centres undefined) [Aminoglutethimide] (20 µM),-0.0783
3,COc1ccc2c(c1)[C@]13CCCC[C@@H]1[C@H](C2)N(C)CC3 [Dextromethorphan] (10 µM),0.211
4,COC[C@@H](NC(C)=O)C(=O)NCc1ccccc1 [Lacosamide] (10 µM),0.583
5,CC(C)(O)C(=O)Nc1ccc([N+](=O)[O-])c(C(F)(F)F)c1 [Hydroxyflutamide] (10 µM),0.195
6,CC[C@@H](CO)NC(=O)[C@@H]1C=C2c3cccc4[nH]cc(c34)C[C@H]2N(C)C1 [Methylergonovine] (13.4 µM),0.087
7,O=c1[nH]c2ccc(Cl)cc2c(N[C@@H]2CN3CCC2CC3)c1-c1nc2ccccc2[nH]1 (20 µM),0.108
8,O=C(O)CCCc1ccc(N(CCCl)CCCl)cc1 [Chlorambucil] (10.66 µM),0.0536
9,CC[C@@H](C(N)=O)N1CCCC1=O [Levetiracetam] (10 µM),-0.283
10,N[C@@H]1C[C@H]1c1ccccc1.N[C@H]1C[C@@H]1c1ccccc1 [Tranylcypromine] (10.0004 µM),-0.083
11,CCC(C)C(C)(COC(N)=O)COC(N)=O (centres undefined) [Mebutamate] (10 µM),0.077
12,O=[N+]([O-])O[C@H]1CO[C@H]2[C@@H]1OC[C@H]2O[N+](=O)[O-] [Isosorbide Dinitrate] (9.99947 µM),-0.000319
13,CC(C)[C@]12O[C@H]1[C@@H]1O[C@]13[C@]1(O[C@H]1C[C@H]1C4=C(CC[C@@]13C)C(=O)OC4)[C@@H]2O [Triptolide] (10 µM),-0.165
14,CN(C)c1ccc(C(=O)c2ccc(N(C)C)cc2)cc1 (10 µM),-0.144
15,O=P1(N(CCCl)CCCl)NCCCO1 (centres undefined) [Cyclophosphamide] (10 µM),-0.064
16,CN(C)C(=O)Oc1ccc[n+](C)c1 [Pyridostigmine  Bromide] (10 µM),-0.161
17,CC(=O)c1c(C)cc(C)c(CNc2ccc(C#N)c(Cl)c2)c1C (10 µM),0.0844
18,Cn1c(CCCC(=O)O)nc2cc(N(CCCl)CCCl)ccc21 [Bendamustine] (20 µM),0.173
19,C[C@]12O[C@H](C[C@]1(O)CO)n1c3ccccc3c3c4c(c5c6ccccc6n2c5c31)CNC4=O [Lestaurtinib] (2 µM),0.0812
20,NCC(CC(=O)O)c1ccc(Cl)cc1 (centres undefined) [Baclofen] (10 µM),0.0265

# In the list so far, these contain an NH in an aromatic ring:
row,Structure (SMILES),XPO1 fluorescence intensity change (log2)
6,CC[C@@H](CO)NC(=O)[C@@H]1C=C2c3cccc4[nH]cc(c34)C[C@H]2N(C)C1 [Methylergonovine] (13.4 µM),0.087
7,O=c1[nH]c2ccc(Cl)cc2c(N[C@@H]2CN3CCC2CC3)c1-c1nc2ccccc2[nH]1 (20 µM),0.108

# Continuation:

row,Structure (SMILES),XPO1 fluorescence intensity change (log2)
1,CN(C)C(=S)SSC(=S)N(C)C (1 µM),0.00631
2,O=P1(NCCCl)OCCCN1CCCl (centres undefined) [Ifosfamide] (20 µM),-0.142
3,CN1C[C@H](C(=O)N[C@]2(C)O[C@@]3(O)[C@@H]4CCCN4C(=O)[C@H](Cc4ccccc4)N3C2=O)C[C@@H]2c3cccc4[nH]cc(c34)C[C@H]21 [Dihydroergotamine] (9.9995338 µM),0.0354
4,Cc1cccc([C@H](C)c2c[nH]cn2)c1C [Dexmedetomidine] (10.0000196 µM),-0.0622
5,C[C@]12Cc3c[nH]nc3C[C@@H]1CC[C@@H]1[C@@H]2CC[C@@]2(C)[C@H]1CC[C@]2(C)O [Stanozolol] (10 µM),0.0266
6,C[C@]12C=CC(=O)C=C1CC[C@@H]1[C@@H]2CC[C@]2(C)OC(=O)CC[C@@H]12 [Testolactone] (10 µM),-0.00446
7,C[C@]12CC[C@H]3[C@@H](CC[C@@]45O[C@@H]4C(O)=C(C#N)C[C@]35C)[C@@H]1CC[C@@H]2O [Trilostane] (9.99988 µM),-0.0195
8,CCN(C(C)=O)c1cccc(-c2ccnc3c(C#N)cnn23)c1 [Zaleplon] (10.0001 µM),0.0701
9,C=C1C[C@@H]2[C@H](CC[C@]3(C)C(=O)CC[C@@H]23)[C@@]2(C)C=CC(=O)C=C12 [Exemestane] (20 µM),0.124
10,COCC1(CO)C(=O)C2CCN1CC2 (centres undefined) [Prima-1 Met] (20 µM),0.109
11,CCCC(C)(COC(N)=O)COC(=O)NC(C)C (centres undefined) [Carisoprodol] (10 µM),0.00397
12,C[C@@H]1C[C@@H]([C@H](O)CC2CC(=O)NC(=O)C2)C(=O)[C@@H](C)C1 [cycloheximide] (10 µM),-0.18
13,C[C@]12CC[C@H]3[C@@H](CCC4=CC(=O)CC[C@@]43C)[C@@H]1CC[C@@H]2O [Testosterone] (10.00049246 µM),0.0417
14,CC(O)(CS(=O)(=O)c1ccc(F)cc1)C(=O)Nc1ccc(C#N)c(C(F)(F)F)c1 (centres undefined) [Bicalutamide] (20 µM),0.105
15,NC(=O)C[S@@+]([O-])C(c1ccccc1)c1ccccc1 [Armodafinil (Modafinil)] (10 µM),0.0482
16,COc1cc2c(cc1OC)C1CC(=O)C(CC(C)C)CN1CC2 (centres undefined) [Tetrabenazine] (10 µM),-0.0051
17,CCNC(=O)C[C@@H]1N=C(c2ccc(Cl)cc2)c2cc(OC)ccc2-n2c(C)nnc21 (10 µM),0.0147
18,Cc1c(N)nc([C@H](CC(N)=O)NC[C@H](N)C(N)=O)nc1C(=O)N[C@H](C(=O)N[C@H](C)[C@@H](O)[C@H](C)C(=O)N[C@H](C(=O)NCCc1nc(-c2nc(C(=O)NCCC[S+](C)C)cs2)cs1)[C@@H](C)O)[C@@H](OC1OC(CO)C(O)C(O)C1OC1OC(CO)C(O)C(OC(N)=O)C1O)c1cnc[nH]1 (some centres undefined) [Bleomycin] (9.95632 µM),-0.0762
19,N[C@@H](Cc1ccc(N(CCCl)CCCl)cc1)C(=O)O [Melphalan] (10 µM),0.112

# — the supplement of paper PMC11098740
